PubChem BioAssay AID1259424, University of Nebraska Medical Center – 2018
The whole screen tested about 14,000 reagents; this is a random part of them. 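Higher correlation or smaller distance means closer resemblance to KSR1 loss; control wells, including KSR1 knockdowns, recur on many plates.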 Further read-outs or replicates are left out here. Not stated in the record: the time to read-out.

Assay: 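Rank knockdowns across the genome by resemblance to the KSR1 depletion profile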 (primary screen)
Cell system: human HCT116 colon cancer cells
Knock-down reagent: siRNA pool against human genes, 50 nM
Read-out: 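Log2 levels of six mRNAs (branched-DNA multiplex), adjusted by two reference genes and the non-targeting median, then scored against the average KSR1 knockdown pattern as Pearson r and euclidean distance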
Direction: mean correlation with KSR1 profile: higher = expression change more like KSR1 knockdown

TIMM21 (translocase of inner mitochondrial membrane 21) showed mean correlation with KSR1 profile 0.275.
After knock-down of CNTN2 (contactin 2), the record shows mean correlation with KSR1 profile -0.487.
Depletion of NCKAP5L (NCK associated protein 5 like) gave: mean correlation with KSR1 profile -0.441.
For ACTL7A (actin like 7A) the deposit lists mean correlation with KSR1 profile -0.418.
FADS1 (fatty acid desaturase 1) gave mean correlation with KSR1 profile -0.0436.
With knock-down of EHHADH (enoyl-CoA hydratase and 3-hydroxyacyl CoA dehydrogenase), the screen gave mean correlation with KSR1 profile -0.719.
After knock-down of GP5 (glycoprotein V platelet) the results were mean correlation with KSR1 profile 0.547.
With knock-down of ABCA9 (ATP binding cassette subfamily A member 9), the record shows mean correlation with KSR1 profile 0.0524.
After knock-down of WDR4, the screen gave mean correlation with KSR1 profile -0.656.

Quoted from the entries so far for reference:
TIMM21 (translocase of inner mitochondrial membrane 21): mean correlation with KSR1 profile = 0.275
CNTN2 (contactin 2): mean correlation with KSR1 profile = -0.487

More records:
Against RXRB (retinoid X receptor beta) the deposit lists mean correlation with KSR1 profile -0.483.
MUC3B (mucin 3B, cell surface associated) showed mean correlation with KSR1 profile -0.464.
COQ8B (coenzyme Q8B) scored mean correlation with KSR1 profile 0.568.
Against CCNL2 (cyclin L2), the entry reads mean correlation with KSR1 profile -0.0803.
Silencing of NOB1 (NIN1 (RPN12) binding protein 1 homolog) came out at: mean correlation with KSR1 profile 0.0824.
For ADH1B (alcohol dehydrogenase 1B (class I), beta polypeptide) the deposit lists mean correlation with KSR1 profile -0.366.
Silencing of AOC2 (amine oxidase copper containing 2) resulted in: mean correlation with KSR1 profile -0.388.
Depletion of TEKT2 (tektin 2) resulted in: mean correlation with KSR1 profile 0.835.
Knock-down of FMO2 (flavin containing dimethylaniline monoxygenase 2) gave: mean correlation with KSR1 profile -0.00562.
Against NOVA2 (NOVA alternative splicing regulator 2), the values are mean correlation with KSR1 profile 0.526.
